From paper PMC11950347
Results are given in words; binding and its absence hold for the method and conditions named. In cells and extracts the contact can be indirect. Some binding calls cover weakened binding; strength is not graded here.

Amino acid sequences for entries named in this document (tags omitted). Residues count along the entry.
UniProt P49747, residues 21-757: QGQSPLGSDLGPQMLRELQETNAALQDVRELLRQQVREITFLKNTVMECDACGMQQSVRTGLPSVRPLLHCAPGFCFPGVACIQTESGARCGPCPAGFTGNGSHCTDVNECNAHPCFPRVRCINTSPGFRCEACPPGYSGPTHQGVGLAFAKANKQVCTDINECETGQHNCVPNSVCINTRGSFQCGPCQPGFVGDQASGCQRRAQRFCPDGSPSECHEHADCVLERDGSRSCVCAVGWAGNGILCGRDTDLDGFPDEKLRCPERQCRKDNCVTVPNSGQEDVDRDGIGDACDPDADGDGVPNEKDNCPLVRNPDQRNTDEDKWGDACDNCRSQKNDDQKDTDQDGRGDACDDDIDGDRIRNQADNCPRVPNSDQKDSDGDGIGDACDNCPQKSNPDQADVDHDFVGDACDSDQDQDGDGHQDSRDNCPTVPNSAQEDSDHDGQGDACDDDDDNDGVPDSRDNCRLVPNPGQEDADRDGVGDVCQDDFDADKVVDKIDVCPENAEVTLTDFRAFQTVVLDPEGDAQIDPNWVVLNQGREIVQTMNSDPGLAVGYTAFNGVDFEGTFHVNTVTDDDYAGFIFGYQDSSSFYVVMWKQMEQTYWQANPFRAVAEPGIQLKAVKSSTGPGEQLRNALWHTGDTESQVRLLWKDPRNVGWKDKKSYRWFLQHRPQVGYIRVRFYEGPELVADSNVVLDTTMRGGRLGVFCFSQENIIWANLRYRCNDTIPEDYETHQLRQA
UniProt Q05707, residues 29-1796: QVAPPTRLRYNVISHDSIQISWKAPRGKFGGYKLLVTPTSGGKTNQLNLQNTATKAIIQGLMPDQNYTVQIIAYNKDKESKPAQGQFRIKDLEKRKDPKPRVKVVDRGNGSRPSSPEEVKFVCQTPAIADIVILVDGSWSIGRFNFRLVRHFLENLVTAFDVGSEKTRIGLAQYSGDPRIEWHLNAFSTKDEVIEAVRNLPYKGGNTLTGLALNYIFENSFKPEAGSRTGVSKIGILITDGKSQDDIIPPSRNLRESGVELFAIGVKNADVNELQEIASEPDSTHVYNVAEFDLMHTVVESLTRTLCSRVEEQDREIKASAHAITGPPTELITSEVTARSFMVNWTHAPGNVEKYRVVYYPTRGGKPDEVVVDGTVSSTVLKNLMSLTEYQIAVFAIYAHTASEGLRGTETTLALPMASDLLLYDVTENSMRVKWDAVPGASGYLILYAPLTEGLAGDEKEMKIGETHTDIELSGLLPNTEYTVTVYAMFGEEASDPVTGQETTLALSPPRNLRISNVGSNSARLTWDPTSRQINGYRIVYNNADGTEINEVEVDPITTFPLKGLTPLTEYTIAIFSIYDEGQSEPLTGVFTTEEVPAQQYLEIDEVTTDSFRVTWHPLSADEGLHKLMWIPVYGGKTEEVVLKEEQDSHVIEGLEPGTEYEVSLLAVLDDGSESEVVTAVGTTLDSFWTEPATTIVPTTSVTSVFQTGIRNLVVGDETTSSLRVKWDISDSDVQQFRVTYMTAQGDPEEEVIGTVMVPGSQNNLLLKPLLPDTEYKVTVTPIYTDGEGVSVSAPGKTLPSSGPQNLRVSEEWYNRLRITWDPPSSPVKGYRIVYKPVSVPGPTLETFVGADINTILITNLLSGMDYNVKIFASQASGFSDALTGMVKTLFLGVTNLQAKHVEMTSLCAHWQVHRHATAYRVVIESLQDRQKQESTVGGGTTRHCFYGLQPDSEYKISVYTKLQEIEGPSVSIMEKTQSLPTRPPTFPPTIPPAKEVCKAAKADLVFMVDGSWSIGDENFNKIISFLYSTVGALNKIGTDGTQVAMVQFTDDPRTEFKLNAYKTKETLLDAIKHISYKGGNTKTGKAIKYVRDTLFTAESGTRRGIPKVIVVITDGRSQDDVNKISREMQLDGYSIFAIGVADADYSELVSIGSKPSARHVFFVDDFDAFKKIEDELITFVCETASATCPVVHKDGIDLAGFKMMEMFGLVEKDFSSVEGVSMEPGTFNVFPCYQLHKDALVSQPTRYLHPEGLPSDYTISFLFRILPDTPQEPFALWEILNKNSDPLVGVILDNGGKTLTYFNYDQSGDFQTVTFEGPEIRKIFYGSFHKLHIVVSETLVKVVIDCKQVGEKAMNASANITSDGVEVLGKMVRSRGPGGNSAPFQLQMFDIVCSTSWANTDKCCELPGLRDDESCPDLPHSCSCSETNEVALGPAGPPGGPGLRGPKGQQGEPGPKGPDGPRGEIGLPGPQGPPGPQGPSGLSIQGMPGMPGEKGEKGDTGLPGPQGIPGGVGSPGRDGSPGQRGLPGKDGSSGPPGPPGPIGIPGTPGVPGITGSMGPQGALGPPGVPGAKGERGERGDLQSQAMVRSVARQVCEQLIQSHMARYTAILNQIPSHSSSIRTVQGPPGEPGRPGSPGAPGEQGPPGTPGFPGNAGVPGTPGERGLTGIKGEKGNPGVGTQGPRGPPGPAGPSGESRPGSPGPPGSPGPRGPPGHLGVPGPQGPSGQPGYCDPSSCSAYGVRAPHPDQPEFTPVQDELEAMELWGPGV

Biological target: cartilage oligomeric matrix protein (human (endogenous in hBMFs)) (UniProt P49747)
Test: co-IP; hBMFs treated with arecoline (10 μg/mL) or PBS and exocytosis inhibitor EXO1 for 24 h; NP40 whole cell lysate, 2 mg protein; magnetic beads coupled with target antibodies, IgG-coupled beads as control; 4 °C overnight; washed with TBST three times; which antibody was on the beads is not …

## collagen XIV (from UniProt Q05707 29-1796)
  binding: binds
